Test results as given in the supplement of paper PMC10849652.
This is one part of the list.

Chains of the proteins cited; added tags and fusions are not shown. Lines headed by an entry give the natural chain unless they say otherwise; changes in a name come on top.
UniProt Q9BY78: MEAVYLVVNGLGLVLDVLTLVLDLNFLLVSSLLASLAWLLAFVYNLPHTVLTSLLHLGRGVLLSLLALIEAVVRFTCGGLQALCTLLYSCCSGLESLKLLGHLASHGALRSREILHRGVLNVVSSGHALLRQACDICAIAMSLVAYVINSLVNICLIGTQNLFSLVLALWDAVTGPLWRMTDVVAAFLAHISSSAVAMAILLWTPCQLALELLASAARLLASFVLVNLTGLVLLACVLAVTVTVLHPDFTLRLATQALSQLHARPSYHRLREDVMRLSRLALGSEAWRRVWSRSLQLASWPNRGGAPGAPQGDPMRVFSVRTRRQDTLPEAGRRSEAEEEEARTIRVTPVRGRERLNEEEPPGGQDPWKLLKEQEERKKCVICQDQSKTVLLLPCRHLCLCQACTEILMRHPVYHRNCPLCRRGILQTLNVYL
UniProt Q86UA6: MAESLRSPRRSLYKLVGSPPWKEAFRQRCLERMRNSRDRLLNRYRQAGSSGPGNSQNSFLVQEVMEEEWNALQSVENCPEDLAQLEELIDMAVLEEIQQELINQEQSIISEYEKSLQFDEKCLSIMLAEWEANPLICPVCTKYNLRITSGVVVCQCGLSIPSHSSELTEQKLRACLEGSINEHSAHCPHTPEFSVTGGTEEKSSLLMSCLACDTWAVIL
UniProt P51812, whole entry, looked up: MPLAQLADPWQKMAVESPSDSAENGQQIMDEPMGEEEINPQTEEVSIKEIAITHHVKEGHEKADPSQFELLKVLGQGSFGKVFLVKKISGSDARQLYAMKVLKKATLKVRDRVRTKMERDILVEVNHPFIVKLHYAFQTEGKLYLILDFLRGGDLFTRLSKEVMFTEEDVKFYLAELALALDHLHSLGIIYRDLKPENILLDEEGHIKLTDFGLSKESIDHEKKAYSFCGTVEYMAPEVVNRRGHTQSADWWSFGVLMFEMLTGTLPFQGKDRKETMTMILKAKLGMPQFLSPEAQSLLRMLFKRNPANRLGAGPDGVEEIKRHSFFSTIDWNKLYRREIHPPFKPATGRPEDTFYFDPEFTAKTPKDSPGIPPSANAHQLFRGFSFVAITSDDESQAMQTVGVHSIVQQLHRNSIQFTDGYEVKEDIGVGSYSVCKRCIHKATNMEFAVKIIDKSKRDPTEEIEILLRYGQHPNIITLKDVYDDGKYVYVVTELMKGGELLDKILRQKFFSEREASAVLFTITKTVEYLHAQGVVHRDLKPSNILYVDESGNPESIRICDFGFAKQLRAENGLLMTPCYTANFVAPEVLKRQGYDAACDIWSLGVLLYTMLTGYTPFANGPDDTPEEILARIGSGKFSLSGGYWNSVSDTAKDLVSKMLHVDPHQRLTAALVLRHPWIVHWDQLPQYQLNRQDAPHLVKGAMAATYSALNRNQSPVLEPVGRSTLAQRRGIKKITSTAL
UniProt Q9NQG5: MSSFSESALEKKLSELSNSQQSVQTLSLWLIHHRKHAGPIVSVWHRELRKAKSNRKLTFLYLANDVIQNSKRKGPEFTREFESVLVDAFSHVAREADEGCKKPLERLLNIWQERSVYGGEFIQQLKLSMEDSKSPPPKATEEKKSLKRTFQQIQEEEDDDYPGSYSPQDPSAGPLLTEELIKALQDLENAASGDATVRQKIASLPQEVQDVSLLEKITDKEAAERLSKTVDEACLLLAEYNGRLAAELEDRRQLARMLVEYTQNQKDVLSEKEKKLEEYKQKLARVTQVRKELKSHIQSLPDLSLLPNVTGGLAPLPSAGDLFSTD
UniProt Q96P16: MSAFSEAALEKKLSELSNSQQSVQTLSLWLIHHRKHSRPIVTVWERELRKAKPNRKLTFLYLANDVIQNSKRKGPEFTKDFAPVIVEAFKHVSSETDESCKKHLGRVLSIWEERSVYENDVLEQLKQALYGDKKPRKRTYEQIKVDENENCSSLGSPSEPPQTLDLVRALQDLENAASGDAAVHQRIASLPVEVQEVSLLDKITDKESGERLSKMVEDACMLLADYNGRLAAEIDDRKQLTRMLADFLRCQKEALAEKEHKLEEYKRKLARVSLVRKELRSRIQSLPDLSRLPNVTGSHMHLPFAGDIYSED
UniProt Q92766: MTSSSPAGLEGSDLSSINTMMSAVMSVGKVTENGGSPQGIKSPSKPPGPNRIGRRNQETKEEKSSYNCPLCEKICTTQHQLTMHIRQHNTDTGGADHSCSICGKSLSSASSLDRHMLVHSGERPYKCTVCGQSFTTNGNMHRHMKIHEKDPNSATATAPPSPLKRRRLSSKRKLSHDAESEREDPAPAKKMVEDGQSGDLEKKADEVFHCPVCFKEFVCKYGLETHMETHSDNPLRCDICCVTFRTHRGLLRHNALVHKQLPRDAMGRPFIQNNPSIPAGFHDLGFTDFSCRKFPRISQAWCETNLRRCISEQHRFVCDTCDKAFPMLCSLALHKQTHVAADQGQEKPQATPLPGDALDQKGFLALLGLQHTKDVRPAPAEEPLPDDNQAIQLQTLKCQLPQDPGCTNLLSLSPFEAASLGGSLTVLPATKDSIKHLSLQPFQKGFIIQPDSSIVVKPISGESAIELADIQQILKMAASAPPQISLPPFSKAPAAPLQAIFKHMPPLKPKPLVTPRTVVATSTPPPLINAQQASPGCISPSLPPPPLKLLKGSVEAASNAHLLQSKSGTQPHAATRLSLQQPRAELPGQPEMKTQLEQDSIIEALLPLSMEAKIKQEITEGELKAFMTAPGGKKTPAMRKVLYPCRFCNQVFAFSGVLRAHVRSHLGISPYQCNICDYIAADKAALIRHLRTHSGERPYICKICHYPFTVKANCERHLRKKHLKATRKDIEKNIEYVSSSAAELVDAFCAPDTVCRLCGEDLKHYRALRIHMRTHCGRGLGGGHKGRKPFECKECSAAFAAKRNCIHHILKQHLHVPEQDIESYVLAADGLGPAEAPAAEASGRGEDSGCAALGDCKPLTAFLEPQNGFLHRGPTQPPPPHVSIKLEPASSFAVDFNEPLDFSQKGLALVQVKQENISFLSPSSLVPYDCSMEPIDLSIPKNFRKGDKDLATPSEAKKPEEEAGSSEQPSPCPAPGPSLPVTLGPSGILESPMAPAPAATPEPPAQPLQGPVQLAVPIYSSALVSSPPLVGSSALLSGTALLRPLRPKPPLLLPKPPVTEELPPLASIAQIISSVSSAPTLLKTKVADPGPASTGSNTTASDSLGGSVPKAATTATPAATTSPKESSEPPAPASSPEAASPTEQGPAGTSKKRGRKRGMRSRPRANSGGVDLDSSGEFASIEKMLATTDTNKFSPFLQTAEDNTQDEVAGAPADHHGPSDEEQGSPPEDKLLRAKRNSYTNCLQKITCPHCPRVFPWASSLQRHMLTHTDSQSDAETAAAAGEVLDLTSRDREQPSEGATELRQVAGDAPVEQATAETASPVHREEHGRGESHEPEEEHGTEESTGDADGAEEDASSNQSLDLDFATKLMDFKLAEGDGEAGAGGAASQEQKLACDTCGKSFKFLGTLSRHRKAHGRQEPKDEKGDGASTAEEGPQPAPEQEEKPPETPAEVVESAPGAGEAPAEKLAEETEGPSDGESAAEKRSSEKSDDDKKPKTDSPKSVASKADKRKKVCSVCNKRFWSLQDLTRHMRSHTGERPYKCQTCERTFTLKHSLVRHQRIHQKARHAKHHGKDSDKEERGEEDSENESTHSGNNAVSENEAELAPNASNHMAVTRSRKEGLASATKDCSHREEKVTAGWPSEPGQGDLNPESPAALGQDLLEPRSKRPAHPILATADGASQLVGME
UniProt Q15287: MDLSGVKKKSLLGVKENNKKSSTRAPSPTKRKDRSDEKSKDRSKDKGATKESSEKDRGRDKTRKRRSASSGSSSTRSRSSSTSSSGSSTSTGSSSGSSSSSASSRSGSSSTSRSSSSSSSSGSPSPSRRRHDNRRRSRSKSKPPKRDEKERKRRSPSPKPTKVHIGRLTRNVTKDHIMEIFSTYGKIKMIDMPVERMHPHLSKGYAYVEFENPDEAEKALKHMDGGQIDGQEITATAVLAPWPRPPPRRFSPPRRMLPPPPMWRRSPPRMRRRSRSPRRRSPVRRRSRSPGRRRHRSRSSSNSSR
UniProt Q5VZM2, whole entry, looked up: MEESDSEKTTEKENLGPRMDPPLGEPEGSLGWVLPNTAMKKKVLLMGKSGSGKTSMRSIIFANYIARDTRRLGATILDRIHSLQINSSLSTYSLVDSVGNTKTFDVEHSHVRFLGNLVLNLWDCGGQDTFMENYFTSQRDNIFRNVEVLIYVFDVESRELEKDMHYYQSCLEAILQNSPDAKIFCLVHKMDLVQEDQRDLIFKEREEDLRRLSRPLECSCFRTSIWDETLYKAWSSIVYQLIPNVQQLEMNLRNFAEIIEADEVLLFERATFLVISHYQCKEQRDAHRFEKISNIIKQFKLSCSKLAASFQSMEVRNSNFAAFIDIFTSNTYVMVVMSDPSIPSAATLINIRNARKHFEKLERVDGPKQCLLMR
UniProt O75116: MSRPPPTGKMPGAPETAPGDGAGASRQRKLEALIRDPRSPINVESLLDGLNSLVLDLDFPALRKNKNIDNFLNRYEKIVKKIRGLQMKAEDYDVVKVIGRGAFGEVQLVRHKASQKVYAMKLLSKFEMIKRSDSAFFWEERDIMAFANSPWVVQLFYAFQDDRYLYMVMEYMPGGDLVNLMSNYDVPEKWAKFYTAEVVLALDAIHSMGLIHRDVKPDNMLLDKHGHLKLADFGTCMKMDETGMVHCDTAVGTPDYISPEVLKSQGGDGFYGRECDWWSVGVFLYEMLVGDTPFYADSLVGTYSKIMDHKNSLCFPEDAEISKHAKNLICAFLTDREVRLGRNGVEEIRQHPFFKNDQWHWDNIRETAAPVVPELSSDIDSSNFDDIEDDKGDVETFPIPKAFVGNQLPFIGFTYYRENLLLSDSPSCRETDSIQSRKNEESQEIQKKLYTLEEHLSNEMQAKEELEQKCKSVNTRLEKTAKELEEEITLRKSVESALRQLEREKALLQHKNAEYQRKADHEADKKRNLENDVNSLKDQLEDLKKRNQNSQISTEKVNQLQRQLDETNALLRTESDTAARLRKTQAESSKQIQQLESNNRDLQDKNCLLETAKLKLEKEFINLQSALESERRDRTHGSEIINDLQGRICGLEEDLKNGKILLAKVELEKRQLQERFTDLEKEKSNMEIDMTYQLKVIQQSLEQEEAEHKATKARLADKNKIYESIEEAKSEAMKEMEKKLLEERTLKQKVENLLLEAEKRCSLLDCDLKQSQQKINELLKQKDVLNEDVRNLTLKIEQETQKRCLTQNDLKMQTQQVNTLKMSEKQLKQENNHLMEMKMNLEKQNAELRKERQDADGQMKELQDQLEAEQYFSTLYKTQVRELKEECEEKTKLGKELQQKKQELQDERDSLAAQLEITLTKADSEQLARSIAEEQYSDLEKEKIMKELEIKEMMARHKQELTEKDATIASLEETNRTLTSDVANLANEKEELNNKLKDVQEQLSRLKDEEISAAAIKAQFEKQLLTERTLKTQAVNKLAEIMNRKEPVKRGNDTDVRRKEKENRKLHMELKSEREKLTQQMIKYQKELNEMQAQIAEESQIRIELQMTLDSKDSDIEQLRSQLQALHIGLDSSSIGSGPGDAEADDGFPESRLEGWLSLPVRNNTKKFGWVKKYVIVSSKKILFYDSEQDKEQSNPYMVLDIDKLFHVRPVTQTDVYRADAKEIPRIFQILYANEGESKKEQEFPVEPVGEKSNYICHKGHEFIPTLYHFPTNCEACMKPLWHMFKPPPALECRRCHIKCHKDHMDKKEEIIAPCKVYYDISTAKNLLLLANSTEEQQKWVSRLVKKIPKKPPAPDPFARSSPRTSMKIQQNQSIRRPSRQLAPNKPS
UniProt P56182: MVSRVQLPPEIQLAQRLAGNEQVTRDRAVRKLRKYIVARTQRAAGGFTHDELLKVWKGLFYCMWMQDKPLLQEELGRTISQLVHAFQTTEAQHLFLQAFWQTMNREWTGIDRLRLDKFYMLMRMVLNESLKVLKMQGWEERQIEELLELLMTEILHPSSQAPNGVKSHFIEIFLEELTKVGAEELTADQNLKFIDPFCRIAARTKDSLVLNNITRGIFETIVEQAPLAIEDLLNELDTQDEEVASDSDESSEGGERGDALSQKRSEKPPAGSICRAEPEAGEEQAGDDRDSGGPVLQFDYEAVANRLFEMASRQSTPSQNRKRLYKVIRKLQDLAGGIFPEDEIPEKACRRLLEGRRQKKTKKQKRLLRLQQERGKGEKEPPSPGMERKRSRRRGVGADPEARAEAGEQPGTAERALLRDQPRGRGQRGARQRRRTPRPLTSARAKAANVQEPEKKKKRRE

compound: CN(C)CC(=O)Nc1ccc2[nH]c(=O)c3ccccc3c2c1; assay: log2 fold change, soluble protein after heating vs DMSO (PISA); higher = thermal stabilisation; K562 cells, 10 uM, 30 min; active = over 0.2 and 3.5 SD of the protein, either way, in both replicates (recomputed)
Procedure, shortened: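 K562 cells at 2×10^6 cells/mL were treated for 30 min with 10 μM compound, and aliquots were heated for 3 min over 48°C-58°C before pooling. Extraction used PBS with 0.5% NP-40 at 4°C, and soluble protein was the supernatant after 21,000xg for 90 min, measured by TMTpro 16plex LC-MS/MS with channel sums equalised. Thermal stability values, relative to control samples and from duplicates, are log2 fold changes.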

log2 fold change, inactive:
RNF26 (UniProt Q9BY78) 0.017
RPL7L1 (UniProt Q6DKI1) -0.103
RPAIN isoform 8 (UniProt Q86UA6) -0.076
RPS6KA3 (UniProt P51812) 0.016
RPRD1B (UniProt Q9NQG5) 0
RPS25 (UniProt P62851) -0.03
RPRD1A (UniProt Q96P16) 0.237
RPS5 (UniProt P46782) -0.036
RNF31 (UniProt Q96EP0) -0.002
RPS7, A0A2R8Y623 0.008
RPS3A (UniProt P61247) -0.063
RREB1 isoform 2 (UniProt Q92766) -0.176
RPS20 isoform 2 (UniProt P60866) -0.03
RPS14 (UniProt P62263) -0.066
RNPS1 (UniProt Q15287) 0.031
RPL37 (UniProt P61927) -0.128
RPRD2 (UniProt Q5VT52) 0.128
RRAGB (UniProt Q5VZM2) -0.027
RNF40 (UniProt O75150) 0.141
ROCK2 (UniProt O75116) 0.007
RRP1 (UniProt P56182) -0.111

Taken from the entries so far for reference:
log2 fold change, inactive:
RNPS1 (UniProt Q15287) 0.031
RPL37 (UniProt P61927) -0.128
